Experimental data taken from US20240316007A1, “COMPOSITIONS AND TREATMENTS WITH NIROGACESTAT” (SpringWorks Therapeutics, Inc., priority 0001, published 2024).
Counter-ions that a name gives are not always drawn. The name of at least one read-out is uncertain.

Assay: Pharmacokinetic parameters for single and multiple oral doses of nirogacestat dihydrobromide
Assay type: in vivo
From the text: The pharmacokinetic parameters for single and multiple oral doses of nirogacestat dihydrobromide (PF-03084014) are provided in Table 1 below.

## CCC[C@H](N[C@H]1CCc2cc(F)cc(F)c2C1)C(=O)Nc1cn(C(C)(C)CNCC(C)(C)C)cn1 [nirogacestat dihydrobromide, (S)-2-(((S)-6,8-difluoro-1,2,3,4-tetrahydronaphthalen-2-yl)amino)-N-(1-(2-methyl-1-(neopentylamino)propan-2-yl)-1H-imidazol-4-yl)pentanamide]
Cohort 1: 150 mg, 1 × 150 mg, APERIOD 2, EXDOSE 150, N 10, Geometric Mean
  Vz/F: 1770 L
Cohort 1: 150 mg, 1 × 150 mg, APERIOD 2, EXDOSE 150, N 10, Max
  Vz/F: 3090 L
Cohort 1: 150 mg, 1 × 150 mg, APERIOD 2, EXDOSE 150, N 10, Median
  Vz/F: 1720 L
Cohort 1: 150 mg, 1 × 150 mg, APERIOD 2, EXDOSE 150, N 10, Min
  Vz/F: 864 L
Cohort 1: 150 mg, 3 × 50 mg, APERIOD 1, EXDOSE 150, N 10, Geometric Mean
  Vz/F: 1770 L
Cohort 1: 150 mg, 3 × 50 mg, APERIOD 1, EXDOSE 150, N 10, Max
  Vz/F: 3210 L
Cohort 1: 150 mg, 3 × 50 mg, APERIOD 1, EXDOSE 150, N 10, Min
  Vz/F: 1060 L
Cohort 2: 100 mg, APERIOD 1, EXDOSE 100, N 8, Max
  Vz/F: 3880 L
Cohort 2: 100 mg, APERIOD 1, EXDOSE 100, N 8, Min
  Vz/F: 1000 L
Cohort 3: 50 mg, APERIOD 1, EXDOSE 50.0, N 8, Max
  Vz/F: 5060 L
Cohort 3: 50 mg, APERIOD 1, EXDOSE 50.0, N 8, Min
  Vz/F: 677 L
